## Results from one PubChem assay

From PubChem BioAssay record AID1159506 (NCATS, 2015).

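Luminescence from an EWS-FLI1 target-promoter (NR0B1) reporter, set against a CMV-promoter reporter, two days after silencing single genes in TC32 Ewing sarcoma cells. Each siRNA was applied at 20 nM. A z-score of the log NR0B1-over-CMV signal, less the median of siRNAs with the same seed; more negative means a stronger specific loss of the NR0B1 reporter.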

This is part of the screen; most of the strongest results are not listed here. Sequences are the guide (antisense) strand, without overhang.

| # | Sequence | gene | seed-corrected z-score |
|---|---|---|---|
| 1 | `UAACCGAUGUGAUACAGCC` | CCR2 | 0.04225 |
| 2 | `UCAUAGUCAAUAUACUCUC` | XRN1 | -0.4676 |
| 3 | `UUUCUCACCAUACCUACAG` | BTG4 | 0.3931 |
| 4 | `AAGGGACUAAGGGCUGUGC` | FLJ16734 | 0.2604 |
| 5 | `UUUCAUCUAAGGUUAGAGG` | GTF2E2 | -1.435 |
| 6 | `AAAGGGUCUGCUUAGAAGG` | ZNF776 | -0.948 |
| 7 | `UUCGAUAUUGCUUCUUCGG` | CDK12 | -0.9821 |
| 8 | `UAAAGGAGUCAGGUCCUGG` | GSG2 | 0.3485 |
| 9 | `AAAUUAACACCUUUGACUG` | DCAF8L2 | 0.02192 |
| 10 | `UUUCGAACACUGAGCAGGC` | VWC2L | -0.1565 |
| 11 | `UUAGUUGAAUAUAGGACUC` | FYB | 0.3224 |
| 12 | `UAAAUCGACACUGAUAGAC` | DSN1 | 0.0004529 |
| 13 | `UACAGCAAUACCGCCCUGC` | LILRA3 | -0.4518 |
| 14 | `UCACUCUCAAUUCGUAUCC` | FER1L6 | -0.746 |
| 15 | `UUCAUCCCGAUAGUAGGUC` | MEN1 | -0.1938 |
| 16 | `UCAAAGUCAAUUUCUAUCU` | BRD3 | -0.403 |
| 17 | `AACAAAUACAUAGGCGUGU` | OR1E1 | 2.038 |
| 18 | `AGAGUGACCAGAGUCAAUG` | LOC401052 | -0.08507 |
| 19 | `UCUGUGAUCACGUAGGAGG` | IRAK2 | 0.7759 |
| 20 | `UUGGUGUAUAUUGUAGGCA` | ACSF3 | -0.04116 |
| 21 | `UCUACCUCUAGUUUGACAG` | TOR1AIP1 | 0.5184 |
| 22 | `UAAUGUCAAAGAGCCGCAG` | POP4 | -0.1239 |
| 23 | `UCUGGGUUCACAGAAGUAC` | LOC729324 | 0.5328 |
| 24 | `UUAGGCUUCAGGUAGAUGA` | OR10J3 | -0.7918 |
| 25 | `UCUGAGAUAAGACAUCAGG` | ZNF398 | 0.0497 |
| 26 | `UUCCUGAAGGCAUCAGGCC` | ZNF37BP | -0.4247 |
| 27 | `UAAAAUGGAAUUCGUUUCU` | KCTD14 | 0.8953 |
| 28 | `UUCCGGAUGACUGCGUUCA` | MAPK15 | -0.0396 |
| 29 | `UUGGAAACAGGAGUGCAAG` | OSM | -1.643 |
| 30 | `UCUCUGUUCAUGGACACCG` | ERAL1 | -0.958 |
| 31 | `UUGAGGAUCAGGUUGUCCG` | COLGALT1 | -0.2433 |
| 32 | `UUAGAUAUGACCUGGGUUG` | TINF2 | -0.3681 |
| 33 | `UUGGUGUACAACUCUAGCG` | LINC01521 | -0.3741 |
| 34 | `UGCAUGACAAAAGAAGUCC` | BCKDHB | 0.1694 |
| 35 | `UUGCGUUUCUUGGACAGGC` | DNAH1 | 0.7609 |
| 36 | `UUGUUAUUCCUCACCAGGA` | ISG15 | 0.4483 |
| 37 | `UUAUUUUCAAUUACGUACA` | RPS4XP16 | -0.1254 |
| 38 | `UGCUUCUAACUCAUAGUCC` | PPL | -0.07945 |
| 39 | `UCCUUAAUGCACAUAGUUG` | CYP4F22 | -0.1768 |
| 40 | `UAUCUUGGAGGAGUCCGGG` | PPP1R14D | 0.172 |
| 41 | `UAAGUCUCUAAAUUGCUCG` | PCDHGA3 | 0.1169 |

Once more, the final 5:

{"sequence": "UUAUUUUCAAUUACGUACA", "gene": "RPS4XP16", "seed-corrected z-score": "-0.1254"}
{"sequence": "UGCUUCUAACUCAUAGUCC", "gene": "PPL", "seed-corrected z-score": "-0.07945"}
{"sequence": "UCCUUAAUGCACAUAGUUG", "gene": "CYP4F22", "seed-corrected z-score": "-0.1768"}
{"sequence": "UAUCUUGGAGGAGUCCGGG", "gene": "PPP1R14D", "seed-corrected z-score": "0.172"}
{"sequence": "UAAGUCUCUAAAUUGCUCG", "gene": "PCDHGA3", "seed-corrected z-score": "0.1169"}